Reference: article PMC6219760
These are yes or no findings as the source states them, for the method shown. Binding seen in cells or lysates may run through a third protein. These calls come from enrichment with a bait or labelling near it, and not all partners need be listed. A no says only that the protein was not detected with the bait. Where a sequence is shown, tags or fusion partners need not be part of it.

Chains of the proteins cited; added tags and fusions are not shown.
UniProt A0AC58HE68: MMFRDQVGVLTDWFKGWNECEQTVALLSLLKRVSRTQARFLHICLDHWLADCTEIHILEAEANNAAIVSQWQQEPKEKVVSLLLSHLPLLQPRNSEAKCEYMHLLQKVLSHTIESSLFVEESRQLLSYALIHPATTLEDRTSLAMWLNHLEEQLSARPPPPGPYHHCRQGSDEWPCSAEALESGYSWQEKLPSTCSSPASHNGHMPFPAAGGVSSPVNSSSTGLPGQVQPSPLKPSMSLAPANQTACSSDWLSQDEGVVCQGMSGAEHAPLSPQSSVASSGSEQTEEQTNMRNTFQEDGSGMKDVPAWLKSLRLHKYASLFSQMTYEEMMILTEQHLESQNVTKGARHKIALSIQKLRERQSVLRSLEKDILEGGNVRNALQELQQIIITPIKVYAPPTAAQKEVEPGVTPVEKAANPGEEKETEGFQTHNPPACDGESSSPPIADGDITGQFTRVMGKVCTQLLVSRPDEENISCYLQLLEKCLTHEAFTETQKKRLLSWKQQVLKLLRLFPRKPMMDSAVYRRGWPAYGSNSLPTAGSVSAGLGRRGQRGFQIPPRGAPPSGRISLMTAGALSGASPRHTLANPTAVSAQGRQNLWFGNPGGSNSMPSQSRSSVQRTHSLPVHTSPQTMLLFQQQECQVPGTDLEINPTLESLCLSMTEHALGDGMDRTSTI

Target: T1, Buc-GFP (Bucky ball fused to eGFP), from transgenic zebrafish (zebrafish) (UniProt H0WFA5)
T1 sequence: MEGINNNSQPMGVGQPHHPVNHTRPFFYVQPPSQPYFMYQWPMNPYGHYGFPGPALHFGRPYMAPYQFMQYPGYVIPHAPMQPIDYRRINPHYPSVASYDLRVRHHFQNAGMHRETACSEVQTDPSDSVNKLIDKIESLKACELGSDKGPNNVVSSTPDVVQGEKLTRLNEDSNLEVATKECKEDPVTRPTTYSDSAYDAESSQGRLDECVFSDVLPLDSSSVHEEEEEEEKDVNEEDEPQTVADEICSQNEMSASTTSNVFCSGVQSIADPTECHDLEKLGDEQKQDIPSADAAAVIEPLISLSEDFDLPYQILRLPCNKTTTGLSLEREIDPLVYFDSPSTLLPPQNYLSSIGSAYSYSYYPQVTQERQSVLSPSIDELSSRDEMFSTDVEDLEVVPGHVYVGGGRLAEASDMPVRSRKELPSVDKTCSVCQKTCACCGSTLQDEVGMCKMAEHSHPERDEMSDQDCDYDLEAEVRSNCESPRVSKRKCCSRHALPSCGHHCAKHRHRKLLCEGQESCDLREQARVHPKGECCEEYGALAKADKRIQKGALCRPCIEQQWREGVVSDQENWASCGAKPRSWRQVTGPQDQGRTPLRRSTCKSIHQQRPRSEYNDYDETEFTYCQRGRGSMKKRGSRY
Assay: affinity purification with mass spectrometry; Buc-GFP held on GFP-Trap magnetic beads from extracts of Buc-GFP transgenic zebrafish embryos; GFP-control samples; lysis buffer 10 mM Tris pH 7.5, 150 mM NaCl, 0.5 mM EDTA, 0.5% NP-40

Row | binding | Substance
1 | no binding | Smaug homolog (Samd4b), endogenous in zebrafish embryos (from UniProt A0AC58HE68 1-674)
2 | binds | MACF1, endogenous in zebrafish embryos
